Results from one PubChem assay

From PubChem BioAssay record AID1159506 (NCATS, 2015).

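Luminescence from an EWS-FLI1 target-promoter (NR0B1) reporter, set against a CMV-promoter reporter, two days after silencing single genes in TC32 Ewing sarcoma cells. Each siRNA was applied at 20 nM. A z-score of the log NR0B1-over-CMV signal, less the median of siRNAs with the same seed; more negative means a stronger specific loss of the NR0B1 reporter.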

This is part of the screen; most of the strongest results are not listed here. Sequences are the guide (antisense) strand, without overhang.

siRNA,gene,seed-corrected z-score
UCUCUUGUUAUCCUUAUCA,CAMP,-0.4699
AUGCUAAUAAUAGCAAGUG,NMBR,-0.01206
UUUGAGUUGAGUAUCUUUG,TATDN1,-0.02541
UUUUCCACAACGCGGAUGC,MYBPC2,0.4241
UGUUGUAAAUUUGGGAUGG,SARS2,0.3141
UCUUAGGUCAUCAAUAGUC,SFMBT2,0.2842
UUUAUGAGACAGGAUGAGC,EIF2B3,-0.5803
UCUGGAUUAAUUGAAGCAC,MTBP,-0.3361
UUAAUCACCAAUAUCCUUG,GTF2H3,-0.1774
UUUGUUGGAAUUGUAGGCA,OR6Y1,-1.723
UAUCAGUCCACCCUCGAUG,RGL1,0.2694
UUCUGGUUCCUGUAUCUGU,TSPAN13,-0.5686
UGUUCCAUAACCUCGAGCG,ITGA6,0.2318
UCUGAGAGCUGCAUCUCCC,VENTX,0.1118
UAGGCGAAUGGUACUGUCC,ACOXL,0.2025
UCUUGAGCAGGUCUUUGAC,GOLGA8EP,-0.1488
UUGCUGACAAUAAGUGUCU,WDR77,0.6495
UUUCCCUUUCCCACGUUCC,LINC01348,-0.4345
AUAGACUUCUCCUUUAUCC,WBSCR16,-0.635
UCACUUCUUAGCACACGGC,OIT3,-0.01605
AACGGGUCAAGAGAUAGGA,RFT1,0.3246
UAUCAGUACAGACAAUCUC,AP4M1,0.1903
CCUUUAAAGACUUCGCUUU,RPL23AP43,-0.7635
UCGGUAACCAUUCGUAGAG,PSMD12,-0.9847
UCAGGUUGAAGCGAUCAUC,DDX6,0.07301
AUUCUUAUAGGUACAAUUC,ITGB3,0.3108
UCCGAUGCAGCAUUCUUGG,ZMYND11,0.4036
UAUCAUAUCAUUAAGUGGG,OSBPL8,-0.3528
UUACCCUUUUCUUUAAUGG,CA13,0.8323
UGAAGAUCUGGGCAUACAC,TMEM217,-0.8019
UAUACUCAUAUACAAGUCC,CCT6A,-0.879
UCCGCUUGCAUUCUUCACG,COL6A6,-0.803
AUCUUCAAAGCCGAUGUCC,PLA2G15,0.6548
AUAGGCAUCUCGAUCAUCC,ANKRD24,1.634
AUCAUCUCCCUUUAUGAUG,PSG1,-0.5234
UAGUAGUCAAUGUCGUUGU,GALNT9,-0.2327
UGGAGUACCCUCUCUAUCU,LOC400706,0.3099
UACUUGCUCCCAUAUGUCC,KIAA1755,-1.229
AUUGUCAUUCCUGUCGUUG,ARHGEF7,-0.2226
UUCUUCACCAGAUCGAUGC,ZNF862,1.499
AUCGGGAAAGGAGUCAUCA,SDC3,1.079
UGUCAAUGAACGGCAGCGG,LINC00602,0.6907
UGGUCGUCCAGAGUUUCCC,HCCAT5,0.02818
UACUUAGGAAGAGCUCAGG,IQCB1,-0.4774
UGUGCUCCCAUUCCACCUC,TREM2,0.8688
UUGGGUAGAAUAACGCGUG,LEXM,-1.826

The last 5 entries again:

| siRNA | gene | seed-corrected z-score |
|---|---|---|
| `UGUCAAUGAACGGCAGCGG` | LINC00602 | 0.6907 |
| `UGGUCGUCCAGAGUUUCCC` | HCCAT5 | 0.02818 |
| `UACUUAGGAAGAGCUCAGG` | IQCB1 | -0.4774 |
| `UGUGCUCCCAUUCCACCUC` | TREM2 | 0.8688 |
| `UUGGGUAGAAUAACGCGUG` | LEXM | -1.826 |